Here are results for two substances from publication PMC7522278.

By UniProt entry, the sequences of proteins in these tests, tags left out.
UniProt Q13164: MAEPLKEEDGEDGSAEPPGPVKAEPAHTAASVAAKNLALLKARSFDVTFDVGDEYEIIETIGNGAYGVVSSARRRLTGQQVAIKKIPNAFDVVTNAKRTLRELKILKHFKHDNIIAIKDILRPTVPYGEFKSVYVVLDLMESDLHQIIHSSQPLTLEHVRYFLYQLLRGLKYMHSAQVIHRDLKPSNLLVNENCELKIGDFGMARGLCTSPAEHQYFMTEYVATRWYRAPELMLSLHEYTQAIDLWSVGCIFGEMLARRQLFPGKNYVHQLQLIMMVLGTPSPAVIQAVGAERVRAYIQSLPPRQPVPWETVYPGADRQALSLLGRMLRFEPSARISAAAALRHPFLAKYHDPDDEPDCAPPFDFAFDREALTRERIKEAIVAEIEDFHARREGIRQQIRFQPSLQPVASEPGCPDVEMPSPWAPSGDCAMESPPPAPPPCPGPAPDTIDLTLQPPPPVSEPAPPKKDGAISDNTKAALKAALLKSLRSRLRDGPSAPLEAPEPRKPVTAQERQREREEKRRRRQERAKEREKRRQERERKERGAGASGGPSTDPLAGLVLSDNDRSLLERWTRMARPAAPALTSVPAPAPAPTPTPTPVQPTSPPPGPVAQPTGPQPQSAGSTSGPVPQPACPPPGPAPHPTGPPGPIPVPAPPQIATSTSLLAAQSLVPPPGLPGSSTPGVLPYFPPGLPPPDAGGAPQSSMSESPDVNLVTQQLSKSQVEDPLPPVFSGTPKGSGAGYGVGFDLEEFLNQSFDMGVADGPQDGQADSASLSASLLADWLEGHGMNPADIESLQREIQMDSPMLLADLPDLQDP
UniProt P27361: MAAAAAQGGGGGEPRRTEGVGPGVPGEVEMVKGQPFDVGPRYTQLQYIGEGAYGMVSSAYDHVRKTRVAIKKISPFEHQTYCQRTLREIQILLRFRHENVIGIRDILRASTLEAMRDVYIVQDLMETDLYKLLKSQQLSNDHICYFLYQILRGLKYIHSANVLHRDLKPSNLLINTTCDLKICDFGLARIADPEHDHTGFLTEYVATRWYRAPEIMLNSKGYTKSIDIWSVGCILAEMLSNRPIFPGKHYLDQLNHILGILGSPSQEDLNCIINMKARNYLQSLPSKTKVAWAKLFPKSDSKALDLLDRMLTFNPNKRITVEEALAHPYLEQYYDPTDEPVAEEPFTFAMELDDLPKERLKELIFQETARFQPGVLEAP
UniProt Q15418: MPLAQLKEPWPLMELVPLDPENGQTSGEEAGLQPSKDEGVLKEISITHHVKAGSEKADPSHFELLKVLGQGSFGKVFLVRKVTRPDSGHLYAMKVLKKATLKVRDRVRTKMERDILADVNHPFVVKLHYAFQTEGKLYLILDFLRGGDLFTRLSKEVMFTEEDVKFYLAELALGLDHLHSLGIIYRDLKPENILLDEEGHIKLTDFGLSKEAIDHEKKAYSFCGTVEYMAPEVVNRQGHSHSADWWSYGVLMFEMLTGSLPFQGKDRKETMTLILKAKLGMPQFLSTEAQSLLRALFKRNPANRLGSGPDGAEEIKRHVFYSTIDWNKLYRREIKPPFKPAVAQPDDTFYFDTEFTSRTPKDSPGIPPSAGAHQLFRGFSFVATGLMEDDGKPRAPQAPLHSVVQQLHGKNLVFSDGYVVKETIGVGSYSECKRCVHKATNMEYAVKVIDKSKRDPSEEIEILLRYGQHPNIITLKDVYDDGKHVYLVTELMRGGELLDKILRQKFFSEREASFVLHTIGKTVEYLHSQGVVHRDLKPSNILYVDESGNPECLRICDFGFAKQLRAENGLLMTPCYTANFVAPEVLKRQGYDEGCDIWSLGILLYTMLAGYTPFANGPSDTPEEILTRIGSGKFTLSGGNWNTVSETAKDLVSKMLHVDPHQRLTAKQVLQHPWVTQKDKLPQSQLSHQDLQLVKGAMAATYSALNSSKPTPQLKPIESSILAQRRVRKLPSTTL

No constants are given. Whether binding was seen depends on the method and setting. In cells and extracts the contact can be indirect. A yes stands for co-enrichment or nearness to the bait. Other partners may have been found. For part of these data: A no says only that the protein was not detected with the bait. For part of these data: Where a sequence is shown, tags or fusion partners need not be part of it.

Holding throughout (assay): affinity purification with mass spectrometry; tandem affinity purification of SFB-tagged bait from stable HEK293T lines: lysis in NETN buffer (100 mM NaCl, 1 mM EDTA, 20 mM Tris HCl, 0.5% NP-40), streptavidin beads, elution with biotin, S-protein agarose, 4 °C; MS, hits filtered by SAINT (HCIP)
The target in assay [1] is T1, C-terminal SFB-tagged DHPS (human) (UniProt P49366).
T1 sequence: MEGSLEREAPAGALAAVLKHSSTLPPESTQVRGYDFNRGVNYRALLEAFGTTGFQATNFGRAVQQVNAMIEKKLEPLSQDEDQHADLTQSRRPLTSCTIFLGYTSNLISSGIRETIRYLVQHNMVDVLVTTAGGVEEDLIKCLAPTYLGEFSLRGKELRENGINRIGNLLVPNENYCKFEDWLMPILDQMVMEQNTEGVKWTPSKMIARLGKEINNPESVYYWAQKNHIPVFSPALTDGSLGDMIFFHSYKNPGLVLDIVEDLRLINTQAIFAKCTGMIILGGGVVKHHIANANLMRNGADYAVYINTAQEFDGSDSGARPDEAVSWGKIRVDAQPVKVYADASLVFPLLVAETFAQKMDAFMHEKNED

For assay [2], the target named is T2, N-terminal SFB-tagged DHPS (human) (UniProt P49366).
T2 sequence: T1 sequence

The target of the next assay is control protein ERK5 (UniProt Q13164).

Take “endogenous ERK1 (from UniProt P27361 1-379) (enzyme)”: the binding entry in assay [1] and in assay [2] was “binds” in each case.
Turning to RPS6KA1 (from UniProt Q15418 1-735), the binding result with control protein ERK5 is “no binding”.
